Reference: article PMC12109296
Results are given in words; binding and its absence hold for the method and conditions named. Binding seen in cells or lysates may run through a third protein. Binding calls can cover weak binding; strength is not graded here.

By UniProt entry, the sequences of proteins in these tests, tags left out.
UniProt Q9UPP1: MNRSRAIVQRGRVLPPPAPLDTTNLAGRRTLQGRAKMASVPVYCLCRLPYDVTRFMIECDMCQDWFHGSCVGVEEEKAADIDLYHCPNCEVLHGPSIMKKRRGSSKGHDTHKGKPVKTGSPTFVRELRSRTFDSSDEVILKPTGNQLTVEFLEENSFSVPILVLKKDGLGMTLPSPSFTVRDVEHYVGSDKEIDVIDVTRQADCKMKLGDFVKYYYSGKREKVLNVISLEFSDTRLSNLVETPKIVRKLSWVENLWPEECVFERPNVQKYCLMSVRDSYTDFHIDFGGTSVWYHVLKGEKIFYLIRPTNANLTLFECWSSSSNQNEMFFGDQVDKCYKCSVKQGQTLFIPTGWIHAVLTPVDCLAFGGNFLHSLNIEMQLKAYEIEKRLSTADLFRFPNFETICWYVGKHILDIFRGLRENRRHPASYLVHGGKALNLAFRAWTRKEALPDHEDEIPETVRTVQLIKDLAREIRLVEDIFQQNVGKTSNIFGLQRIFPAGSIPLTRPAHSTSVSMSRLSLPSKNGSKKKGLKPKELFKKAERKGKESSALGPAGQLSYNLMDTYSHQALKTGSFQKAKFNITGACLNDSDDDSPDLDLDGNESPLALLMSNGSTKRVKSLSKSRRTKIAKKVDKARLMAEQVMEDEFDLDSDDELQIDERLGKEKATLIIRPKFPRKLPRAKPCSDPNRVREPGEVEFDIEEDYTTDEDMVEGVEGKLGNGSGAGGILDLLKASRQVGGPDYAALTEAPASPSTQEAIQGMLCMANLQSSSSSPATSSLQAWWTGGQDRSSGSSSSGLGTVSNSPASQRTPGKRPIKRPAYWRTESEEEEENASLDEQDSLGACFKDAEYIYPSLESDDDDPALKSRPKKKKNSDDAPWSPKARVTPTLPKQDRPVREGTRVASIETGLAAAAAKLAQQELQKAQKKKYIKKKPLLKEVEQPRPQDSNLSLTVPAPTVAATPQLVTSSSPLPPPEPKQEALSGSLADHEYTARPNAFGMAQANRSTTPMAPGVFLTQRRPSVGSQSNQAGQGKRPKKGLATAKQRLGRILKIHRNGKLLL

These substances were tested against Flag-tagged PHF8 (PHD finger protein 8) (UniProt Q9UPP1) (assay: co-IP; Flag-PHF8 co-expressed with KDM2A or KDM2A constructs in 293T cells; lysates in IP buffer (0.1% Triton X-100, 300 mM NaCl, 300 mM sucrose, 1 mM MgCl2, 1 mM EGTA, 10 mM PIPES pH 7.0) precipitated with anti-Flag M2 agarose; Western blot with anti-KDM2A or anti-GFP; in Figure 4A cells with or without 2 mM 2DG for 2 h).

Row | binding | Substance
1 | binds | KDM2A mutant lacking an LRR domain (from UniProt Q9Y2K7-1)
2 | binds | KDM2A mutant lacking a PHD domain (from UniProt Q9Y2K7-1)
3 | binds | KDM2A mutant lacking an F-box domain (from UniProt Q9Y2K7-1)
